Record: PubChem BioAssay AID1259254 (NCATS, 2017)

Test: 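Gene knock-downs that lead to re-replication, shown by excess G2 DNA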 (primary screen)
System: human HCT116 colorectal cancer cells
Reagent: single siRNA against human genes
Time to read-out: 3 days
Measurement: 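Imaged Hoechst DNA stain sorts each cell into a cycle phase by DNA amount; per plate, G2 fraction set to 0% for non-targeting and 100% for GMNN siRNA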
Direction: G2 robust z-score and G2 cells, % of GMNN control: higher = more G2 cells, more excess DNA replication
Call rule: 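Active siRNAs have a G2 robust z of 5 or more median absolute deviations over the median, which in these data means about 38% or higher of GMNN control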
The deposit covers about 59,000 reagents; below is a part drawn at random. In the full data, about 1,550 (2.6%) were called active. 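G2 share is only a proxy for re-replication; each gene was hit by three separate siRNAs, and active genes were retested.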 The numbers tell different reagents against one gene apart. Not all columns of the deposit are shown. The record does not give: the amount of reagent.

gene | reagent no. | G2 robust z-score | G2 cells, % of GMNN control | call
PCYT2 | 1 | 1.06 | 10.4 | inactive
PCYT2 | 2 | 0.0328 | 3.2 | inactive
PCYT2 | 3 | 0.0117 | 3.05 | inactive
DEFA5 | 1 | -1.43 | -7.11 | inactive
DEFA5 | 2 | 0.125 | 3.85 | inactive
DEFA5 | 3 | 0.678 | 7.74 | inactive
HECA | 1 | -0.368 | 0.38 | inactive
HECA | 2 | -0.0504 | 2.61 | inactive
HECA | 3 | -0.617 | -1.37 | inactive
PABIR3 | 1 | -0.644 | -1.56 | inactive
PABIR3 | 2 | 0.975 | 9.82 | inactive
PABIR3 | 3 | 0.608 | 7.24 | inactive
PCLO | 1 | 1.13 | 10.9 | inactive
PCLO | 2 | 1.42 | 12.9 | inactive
PCLO | 3 | -0.51 | -0.618 | inactive

4 entries from above, arranged by “G2 cells, % of GMNN control”, low to high:
gene | reagent no. | G2 robust z-score | G2 cells, % of GMNN control | call
PABIR3 | 1 | -0.644 | -1.56 | inactive
HECA | 3 | -0.617 | -1.37 | inactive
PABIR3 | 3 | 0.608 | 7.24 | inactive
PABIR3 | 2 | 0.975 | 9.82 | inactive

The results go on.
gene | reagent no. | G2 robust z-score | G2 cells, % of GMNN control | call
MMP7 | 1 | 1.77 | 15.4 | inactive
MMP7 | 2 | 1.56 | 13.9 | inactive
MMP7 | 3 | -1.08 | -4.62 | inactive
TRAF2 | 1 | 0.0881 | 3.59 | inactive
TRAF2 | 2 | -0.574 | -1.07 | inactive
TRAF2 | 3 | -0.729 | -2.16 | inactive
NECAP2 | 1 | -0.885 | -3.26 | inactive
NECAP2 | 2 | 0.857 | 9 | inactive
NECAP2 | 3 | -1.68 | -8.84 | inactive
UGT1A5 | 1 | -0.501 | -0.554 | inactive
UGT1A5 | 2 | 0.807 | 8.65 | inactive
UGT1A5 | 3 | 0.508 | 6.54 | inactive
NUTM2F | 1 | 9.16 | 67.4 | active
NUTM2F | 2 | 1.46 | 13.3 | inactive
NUTM2F | 3 | -0.226 | 1.38 | inactive
